The values that follow come from PubChem BioAssay AID493014 (National Center for Advancing Translational Sciences (NCATS), 2011).

As a reminder, the AC50 is the concentration giving half of the maximal activity seen.

The list shows a part of the results. These are further read-outs of the screen, such as a control signal, another cell line or another target. No call is given for them. Most of these compounds were active or inconclusive in the main read-out, so they are no random draw. Words in brackets tell the shape of the fitted curve; partial curves, single points and poor fits give uncertain potencies.

This assay can be described thus: qHTS Assay to Find Inhibitors of Chronic Active B-Cell Receptor Signaling. The following applies: ABC-DLBCL IkBa-CBG/CBR reporter, luminescence ratio (green luciferase fused to IkBa over red control in TMD8 lymphoma cells), 4 h. Summed up: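 Doxycycline induced both beetle luciferases in TMD8 lymphoma cells; IKK-driven degradation limits the IkappaBalpha-fused green signal, while red luminescence normalises for cell number and nonspecific effects. Compounds tested up to 46 uM, 4 hrs.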
(In qHTS, concentration-response curves come from the screen itself.)

Setting [1] is: measured here: CBR red luminescence, cell number.
Setting [2] is: measured here: IkBa-CBG green luminescence.

Regarding `O=C(NNC(=O)c1ccccc1OCc1ccccc1Cl)c1csc(N2CCOCC2)n1`, under setting [1], the AC50 is 35.5 µM [rising, single point]. On the same count and under the same terms, the same measure for `O=C(NC(=S)Nc1ccccc1[N+](=O)[O-])c1ccccc1Cl`: 35.5 µM [rising, single point]; for `CCOC(=O)C1=C2SCCN2C(=O)C(C#N)C1(C)C` (stereo not drawn): 15.8 µM [falling, partial curve, poor fit]. Same read-out and setting: the same measure for `O=S(=O)(Nc1cccc(-c2ccc3nncn3n2)c1)c1cc(F)ccc1F`: 25.9 µM [rising, single point].

With `O=C1/C(=C\c2ccco2)NC(=S)N1c1ccccc1`, the AC50 under setting [1] is 0.501 µM [falling, full curve]. On the same count and under the same terms, then `CCCNC(=O)c1ccc2c(=O)n(Cc3ccco3)c(=S)[nH]c2c1`, with 1.78 µM [falling, full curve]; and `COc1ccc(NC(=O)C(C)Sc2nnc3c4c(nc(-c5ccc(OC)cc5)n23)CC(C)(C)OC4)cc1` (stereo not drawn), with 0.231 µM [rising, full curve, poor fit]; and `Cc1ccc(OCC(=O)NC(=S)Nc2cccc(NC(=O)c3ccccc3Cl)c2)cc1`, with 23.1 µM [falling, partial curve, poor fit]. On the same count and under the same terms, then `COc1ccc(C(=O)N(C)CCCC2CCCC2)cc1OC1CCN(C(C)C)CC1`, with 12.6 µM [falling, single point]; and `COc1ccc(OCC(=O)Nc2c(C(=O)N(CCN(C)C)Cc3ccco3)oc3ccccc23)cc1`, with 1 µM [falling, full curve, poor fit]; and `O=C(O)CCc1ccc(S(=O)(=O)NCCc2ccccc2)cc1`, with 35.5 µM [falling, single point]. Still for that read-out and setting: then `COCCCn1c(SCC(=O)Nc2ccc(C)cc2)nc2ccccc2c1=O`, with 35.5 µM [rising, single point]; and `O=S(=O)(Nc1ccccc1O)c1cccc2cccnc12`, with 6.31 µM [rising, single point]. For the compound `O=C(NNC(=O)c1ccc2ccccc2c1O)Nc1ccc(F)cc1`, under setting [1], the concentration at half-maximal activity (AC50) was 12.6 µM [rising, single point]. The same measure, in the same setting: then `O=C(Nc1ccc(-c2cn3c(n2)SCC3)cc1)c1ccc2c(c1)OCO2`, with 7.08 µM [falling, partial curve]; and `CCOc1ccccc1N1C(=O)CC(N(O)c2ccccc2)C1=O` (stereo not drawn), with 0.517 µM [falling, full curve]. Still for that read-out and setting: the same measure for `CCCCCCCC1(C)NC(=O)N(c2ccccc2)N1` (stereo not drawn): 0.891 µM [rising, full curve, poor fit]. Still for that read-out and setting: the same measure for `Cc1nnc(NC(=O)c2ccccc2NC(=O)c2ccccc2)s1`: 2.24 µM [falling, partial curve, poor fit]. Take `CC1(C)CC(=O)c2c(n(S(=O)(=O)c3ccccc3)c3ccc(NS(=O)(=O)c4ccccc4)cc23)C1`: the AC50 is 6.51 µM [falling, partial curve, poor fit] under setting [1] and 14.6 µM [rising, partial curve] under setting [2]. For the compound `Cc1c(C(=O)OCCOC(C)C)[nH]c2c1C(=O)CC(c1ccco1)C2` (stereo not drawn), the AC50 reads like this: under setting [1], 2.06 µM [rising, full curve]; under setting [2], 4.61 µM [falling, partial curve, poor fit].

On to `Cc1ccc(-c2nc(CN3CCN(c4cnccn4)CC3)c(C)o2)o1`, for which the half-maximal activity concentration (AC50) under setting [1] is 3.55 µM [rising, partial curve, poor fit].

Turning to `Cc1sc2ncnc(N3CCC(C(=O)N(C)CC(=O)Nc4ccccc4Cl)CC3)c2c1C`, under setting [1], the AC50 is 15.8 µM [falling, single point]. Same read-out and setting: then `Cc1nc(NC(=O)/C=C/c2ccccc2)sc1C(=O)Nc1ccccc1`, with 2 µM [falling, full curve]; and `Cc1ccc(NC(=O)OCC(F)(F)C(F)F)cc1NC(=O)OCC(F)(F)C(F)F`, with 5.62 µM [rising, partial curve, poor fit].

For the compound `CN(C)S(=O)(=O)Nc1cccc(NC(=O)CC23CC4CC(CC(C4)C2)C3)c1`, the AC50 under setting [1] was 15.8 µM [falling, partial curve]. On the same count and under the same terms, then `COC(=O)c1ccc(Nc2nc3ccc(C)cc3n3cnnc23)cc1`, with 3.55 µM [falling, partial curve]; and `COc1ccc(O)c(-c2cc(-c3ccccc3Cl)[nH]n2)c1`, with 1.41 µM [rising, full curve, poor fit]. `C=CCN(C(=O)CSC1=NC(=O)CN1C(C)=O)c1nc(C)c(-c2ccccc2)s1`: the AC50 reads like this: under setting [1], 5.62 µM [rising, single point]; under setting [2], 14.1 µM [falling, partial curve, poor fit]. As for `CC(=O)c1cccc(NC(=O)c2cc3ccccn3n2)c1`, the AC50 under setting [1] is 0.103 µM [falling, full curve, poor fit]. Same read-out and setting: the same measure for `O=C(Nc1nc2cc3c(cc2s1)OCCO3)C1CCCCC1`: 16.4 µM [falling, partial curve]; for `COc1ccc(NC(=O)CS(=O)(=O)c2cn(CC(=O)N3CCOCC3)c3ccccc23)cc1`: 17.8 µM [falling, single point]. Same read-out and setting: the same measure for `CNC(=O)c1cnn(-c2nc(-c3ccc(OC)cc3)cs2)c1C(F)(F)F`: 20 µM [rising, single point]. As to `CCOc1ccc(C(=O)NCc2ccco2)cc1Cl`, under setting [1], the AC50 is 20 µM [falling, single point].

For the compound `O=C(CS(=O)(=O)Cc1ccccc1)N1CCc2ccccc21`, the AC50 under setting [1] is 9.2 µM [rising, partial curve, poor fit].

With `Cc1ccsc1C(=O)NNC(=O)CCN1CCN(c2ccccc2)CC1`, the AC50 under setting [1] is 29.1 µM [falling, partial curve, poor fit]. On to `CC(=O)n1cc(N(C(=O)CCl)c2ccc(C)cc2)c2ccccc21`, for which, under setting [1], the AC50 was 7.08 µM [falling, full curve]. Same read-out and setting: then `CC(C)Cc1nnc(NC(=O)CCNC(=O)c2ccccc2Cl)s1`, with 14.6 µM [falling, partial curve]. With `O=C(Oc1ccc2cc(Br)ccc2c1)N1CCCCCC1`, under setting [1], the AC50 is 0.58 µM [rising, partial curve, poor fit].

As to `N/C(=N\OC(=O)N1c2ccccc2Sc2ccccc21)c1ccc(Br)cc1`, the AC50 under setting [1] was 7.31 µM [falling, partial curve]. Still for that read-out and setting: then `CCN(CC)c1ccc2c(c1)CCCN2`, with 18.4 µM [rising, single point]. Take `COc1c(Cl)cc(C(=O)NN)cc1Cl`: the AC50 under setting [1] was 2.82 µM [rising, full curve] and the concentration at half-maximal activity (AC50) under setting [2] was 2 µM [falling, full curve]. In the case of `CCOC(=O)C1CCN(C(=O)Cc2c(C(=O)O)n(CC)c3ccccc23)CC1`, the AC50 under setting [1] was 0.00366 µM [rising, full curve, poor fit]. The same measure, in the same setting: the same measure for `Cc1ccccc1Cn1nnc(C(=O)Nc2cccc(C)c2C)c1N`: 15.8 µM [falling, single point]. The same measure, in the same setting: the same measure for `Cc1ccc(C(=O)Nc2ccccc2C(=O)NCC2CCCO2)cc1` (stereo not drawn): 25.1 µM [falling, single point]; for `CC(=O)NC(NC(=S)Nc1ccc(N=Nc2ccccc2C)cc1C)C(Cl)(Cl)Cl` (stereo not drawn): 20 µM [falling, partial curve, poor fit]; for `O=c1c2c([N+](=O)[O-])cc([N+](=O)[O-])cc2sn1-c1ccc(Br)cc1`: 16.4 µM [falling, single point]. The same measure, in the same setting: the same measure for `CCCSc1nnc(NC(=O)Nc2ccc(F)cc2)s1`: 0.651 µM [rising, full curve, poor fit]; for `COc1ccc(-c2nc(SC)n(C(=O)c3ccco3)n2)cc1`: 0.103 µM [rising, full curve, poor fit]. Regarding `CCOC(=O)c1nn(-c2ccc3c(c2)OCCO3)cc1O`, the AC50 under setting [1] was 28.2 µM [falling, single point]. Same read-out and setting: then `Cn1ncc(Cl)c1C(=O)Nc1nc2ccc(Cl)cc2s1`, with 5.8 µM [falling, full curve]; and `CC(C)[C@H](NC(=O)c1ccccc1)C(=O)OCC(=O)NCc1ccc(F)cc1`, with 25.1 µM [rising, single point]; and `Nc1ncc(CN2CCCC(C(=O)Nc3ccc(-c4ccco4)cc3)C2)cn1` (stereo not drawn), with 15.8 µM [falling, single point]. As to `O=C(CO/N=C/c1ccc(OC(F)F)cc1)NCc1ccc(F)cc1`, the half-maximal activity concentration (AC50) under setting [1] was 5.01 µM [falling, partial curve, poor fit]. Take `CCC(=O)Nc1c(-c2ccccc2Cl)c(=O)c2ccccc2n1CC`: the AC50 under setting [1] was 6.31 µM [rising, single point]. For `CCC(C)[C@H](NC(=O)N1CC(=O)Nc2ccccc21)C(=O)N[C@H](Cc1c[nH]c2ccccc12)C(=O)O` (stereo partly drawn), the AC50 under setting [1] was 3.55 µM [falling, single point]. The same measure, in the same setting: then `CCOC(=O)C1=CN(Cc2cccc(I)c2)S(=O)(=O)N(C)C1C` (stereo not drawn), with 29.1 µM [falling, single point]; and `CC(C)c1ccc(NC(=O)c2ccc(=O)n(Cc3ccccc3)c2)cc1`, with 5.62 µM [rising, single point]; and `CN(CCC#N)C(=O)c1cc2c(s1)-c1ccccc1SC2`, with 3.55 µM [rising, single point].

Take `COCCCNCCOc1ccc(C(C)(C)c2ccccc2)cc1`: the AC50 under setting [1] was 20.6 µM [falling, single point].

As for `COC(=O)Oc1ccc(/C=N/NC(=O)CN(c2ccccc2Cl)S(C)(=O)=O)cc1OC`, under setting [1], the AC50 is 3.66 µM [falling, partial curve, poor fit]. Take `Cc1ccc(C)c(N2CCN(S(=O)(=O)c3ccc(-c4cc(C)no4)s3)CC2)c1`: the AC50 under setting [1] is 0.398 µM [falling, partial curve, poor fit]. The same measure, in the same setting: the same measure for `Cc1cccn2cc(CNC(=O)CC3CCCC3)nc12`: 18.4 µM [rising, partial curve, poor fit]. On to `COc1ccc(S(=O)(=O)NC2CC2)cc1Br`, for which, under setting [1], the AC50 is 35.5 µM [rising, single point]. The same measure, in the same setting: the same measure for `CC(C)c1cc(=O)n2[nH]c(SCc3ccccc3)nc2n1`: 10 µM [falling, partial curve].
